In US20210324351 one finds binding result and functional effect data, which are given here for two sequences.

By UniProt entry, the sequences of proteins in these tests, tags left out. Residues count along the entry.
UniProt Q8N884, 157-522 K187N/L195R: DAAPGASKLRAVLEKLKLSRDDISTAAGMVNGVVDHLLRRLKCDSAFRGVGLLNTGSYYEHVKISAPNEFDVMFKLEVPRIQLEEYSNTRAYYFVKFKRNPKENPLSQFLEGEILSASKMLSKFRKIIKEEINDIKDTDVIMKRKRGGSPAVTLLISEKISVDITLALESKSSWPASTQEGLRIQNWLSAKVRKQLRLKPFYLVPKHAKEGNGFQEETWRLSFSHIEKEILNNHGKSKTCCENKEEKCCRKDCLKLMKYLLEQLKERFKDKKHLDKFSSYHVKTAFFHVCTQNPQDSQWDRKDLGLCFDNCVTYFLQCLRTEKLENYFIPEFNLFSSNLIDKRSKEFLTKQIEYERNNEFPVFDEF
UniProt Q8N884, whole entry: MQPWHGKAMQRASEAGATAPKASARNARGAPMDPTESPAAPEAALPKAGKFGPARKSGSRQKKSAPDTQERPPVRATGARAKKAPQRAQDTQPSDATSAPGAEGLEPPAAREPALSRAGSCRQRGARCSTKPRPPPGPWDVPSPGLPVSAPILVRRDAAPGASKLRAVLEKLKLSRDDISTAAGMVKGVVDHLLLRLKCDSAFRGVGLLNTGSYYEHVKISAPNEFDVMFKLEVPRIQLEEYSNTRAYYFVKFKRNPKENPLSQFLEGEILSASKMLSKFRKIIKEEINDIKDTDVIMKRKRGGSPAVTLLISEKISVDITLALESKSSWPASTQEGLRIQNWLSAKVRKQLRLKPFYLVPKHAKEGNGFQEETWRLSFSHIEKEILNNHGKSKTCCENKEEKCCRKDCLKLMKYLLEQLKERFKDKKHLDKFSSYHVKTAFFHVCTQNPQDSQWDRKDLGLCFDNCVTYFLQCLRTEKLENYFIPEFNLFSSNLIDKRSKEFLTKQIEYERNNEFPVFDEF
UniProt Q8N884, whole entry K187N/L195R: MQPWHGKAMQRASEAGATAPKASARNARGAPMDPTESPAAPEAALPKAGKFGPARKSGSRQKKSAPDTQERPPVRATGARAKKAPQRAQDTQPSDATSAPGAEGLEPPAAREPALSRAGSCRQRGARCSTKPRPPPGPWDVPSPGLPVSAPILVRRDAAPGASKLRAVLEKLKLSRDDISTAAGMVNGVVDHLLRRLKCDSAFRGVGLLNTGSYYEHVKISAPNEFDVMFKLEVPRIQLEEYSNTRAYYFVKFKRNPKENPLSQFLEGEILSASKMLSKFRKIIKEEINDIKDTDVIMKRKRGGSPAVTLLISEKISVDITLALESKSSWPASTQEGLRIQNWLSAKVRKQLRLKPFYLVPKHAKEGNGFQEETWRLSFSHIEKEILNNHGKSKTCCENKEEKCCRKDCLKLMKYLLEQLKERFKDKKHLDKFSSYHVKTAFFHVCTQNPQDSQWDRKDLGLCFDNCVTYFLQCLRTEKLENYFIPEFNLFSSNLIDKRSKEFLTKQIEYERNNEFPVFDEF
UniProt Q8N884, 157-522: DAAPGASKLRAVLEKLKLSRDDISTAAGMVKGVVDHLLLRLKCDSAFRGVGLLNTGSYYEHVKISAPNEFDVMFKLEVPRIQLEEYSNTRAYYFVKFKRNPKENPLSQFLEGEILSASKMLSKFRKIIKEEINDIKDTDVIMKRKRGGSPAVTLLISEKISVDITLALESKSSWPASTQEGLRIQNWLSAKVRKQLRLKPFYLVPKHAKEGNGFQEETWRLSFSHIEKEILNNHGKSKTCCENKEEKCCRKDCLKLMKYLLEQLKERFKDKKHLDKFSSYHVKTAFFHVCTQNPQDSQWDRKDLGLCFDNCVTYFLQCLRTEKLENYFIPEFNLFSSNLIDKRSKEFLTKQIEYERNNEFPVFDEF
UniProt Q8C6L5, 147-507: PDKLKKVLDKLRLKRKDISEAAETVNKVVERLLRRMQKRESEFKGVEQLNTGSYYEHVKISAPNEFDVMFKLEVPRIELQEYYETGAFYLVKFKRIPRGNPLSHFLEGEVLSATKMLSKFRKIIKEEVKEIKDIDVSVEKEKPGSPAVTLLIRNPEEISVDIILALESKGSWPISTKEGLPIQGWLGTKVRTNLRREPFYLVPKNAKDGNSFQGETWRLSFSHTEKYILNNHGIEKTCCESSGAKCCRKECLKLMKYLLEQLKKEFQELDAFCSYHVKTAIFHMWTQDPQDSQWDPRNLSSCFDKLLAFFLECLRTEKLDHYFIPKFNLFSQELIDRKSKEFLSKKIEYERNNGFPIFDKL
UniProt Q8C6L5, 147-507 N172K/R180L: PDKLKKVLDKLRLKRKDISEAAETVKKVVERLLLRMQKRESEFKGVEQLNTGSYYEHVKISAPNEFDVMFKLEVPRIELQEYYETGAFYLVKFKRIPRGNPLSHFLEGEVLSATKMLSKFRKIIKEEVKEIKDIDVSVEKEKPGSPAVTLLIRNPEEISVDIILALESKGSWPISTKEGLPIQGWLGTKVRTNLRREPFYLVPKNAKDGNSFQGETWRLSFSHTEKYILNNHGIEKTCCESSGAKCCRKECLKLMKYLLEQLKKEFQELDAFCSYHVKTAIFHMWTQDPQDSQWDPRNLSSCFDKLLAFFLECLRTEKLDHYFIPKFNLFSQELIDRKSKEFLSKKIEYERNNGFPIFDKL

In data set [1] the target is hcGAS K187N/L195R (hcGAS*) (Homo sapiens) (UniProt Q8N884). In words: structure. As to conditions: 2.3 A binary complex (6CT9) and 2.8 A ternary complex with ATP/Mg (6CTA); 2:2 cGAS:DNA; purified recombinant protein; protein details: untagged (6xHis-SUMO2 removed with SENP2).
Data set [2] has the same target. Description: activity assay. The settings on record: DNA-stimulated 2'3' cGAMP synthesis, purified recombinant protein, protein details: untagged (6xHis-SUMO2 removed with SENP2).
In data set [3] the target is full-length hcGAS (Homo sapiens) (UniProt Q8N884). Description: activity assay. As to conditions: DNA-stimulated 2'3' cGAMP synthesis, purified recombinant protein, protein details: expressed as 6xHis-SUMO2 fusion.
For data set [4], the target named is mcGAS catalytic domain WT (UniProt Q8C6L5). In words: activity assay. As to conditions: purified recombinant protein, protein details: untagged (6xHis-SUMO2 removed with SENP2).
In data set [5] the target is full-length hcGAS K187N/L195R (Homo sapiens) (UniProt Q8N884). Description: activity assay. The settings on record: DNA-stimulated 2'3' cGAMP synthesis; purified recombinant protein; protein details: expressed as 6xHis-SUMO2 fusion.
For data set [6], the target named is mcGAS humanized K187/L195 N172K,R180L (UniProt Q8C6L5). Description: activity assay. The settings on record: DNA-stimulated 2'3' cGAMP synthesis, purified recombinant protein, protein details: untagged (6xHis-SUMO2 removed with SENP2).
In data set [7] the target is hcGAS catalytic domain WT (Homo sapiens) (UniProt Q8N884). Description: activity assay. The settings on record: DNA-stimulated 2'3' cGAMP synthesis (TLC), 5 mM Mg, 37 C, purified recombinant protein, protein details: untagged (6xHis-SUMO2 removed with SENP2).

For some of these results: A negative result means that nothing was seen under these conditions. For some of these results: Construct, isoform or probe ends are uncertain for at least one entry.

“AAATTGCCGAAGACGAA / TTTCGTCTTCGGCAATT [17 bp DNA]”: the binding result in data set [1] is listed as “binds”. The functional effect entry in data set [2] (full activation) was “active”; in data set [3] (not activated by short DNA) it was “not active”; in data set [4] (DNA-stimulated 2'3' cGAMP synthesis, near equal efficiency to 45 bp), “active”; in data set [5], “active”; in data set [6] (recognition of 17 bp abolished) it was “not active”; in data set [7] (inactive with 17 bp DNA), “not active”.

As for “TACAGATCTACTAGTGATCTATGACTGATCTGTACATGATCTACA (double strand) [45 bp interferon stimulatory DNA]”, the functional effect result in data set [2] (nearly equal to mcGAS) is given as “active”; in data set [3], “active”; in data set [4] (DNA-stimulated 2'3' cGAMP synthesis (TLC), 5 mM Mg, 37 C), “active”; in data set [5], “active”; in data set [6] (restrained to human levels) it was “active”; in data set [7] (~20-fold less efficient than mcGAS) it was “active”.
